Laboratory results as given in US7402298.
These are yes or no findings as the source states them, for the method shown. Some results given as binding are weak or reduced against the parent protein; the word gives no strength.

Chains of the proteins cited; added tags and fusions are not shown. Residues count along the entry.
UniProt P20827, residues 19-182: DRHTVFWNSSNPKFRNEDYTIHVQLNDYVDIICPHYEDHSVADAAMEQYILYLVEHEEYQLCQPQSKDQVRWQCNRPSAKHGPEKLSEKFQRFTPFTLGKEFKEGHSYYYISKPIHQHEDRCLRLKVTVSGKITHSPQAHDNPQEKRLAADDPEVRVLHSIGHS

What was measured:
Cb1 adapter protein = Cb1 adapter protein (UniProt P22681); assay: method not given; EphA2 activated by EphrinA1-Fc or monoclonal antibodies
[1] = target: EphA2 receptor tyrosine kinase (human) (UniProt P29317); assay: immunofluorescence staining (IF)
[2] = target: EphA2 receptor tyrosine kinase (human) (UniProt P29317); assay: immunoprecipitation (IP)

Substance | binding (Cb1 adapter protein) | binding [1] | binding [2]
EphA2 receptor tyrosine kinase (from UniProt P29317 24-976) | binds |  | 
EphrinA1-Fc, the extracellular domain of ephrinA1 linked to immunoglobulin heavy chain (from UniProt P20827 19-182) (Fc fusion) |  | binds | binds
